For this assay, the target named is thyroid hormone receptor interactor protein 12 (TRIP12), endogenous (human (endogenous in HCT116 and HEK293T)) (UniProt Q14669). The assay can be described thus: affinity purification with mass spectrometry; IP with an antibody to endogenous TRIP12 (control IgG) from lysates of HCT116 cells treated with MG132 for 6 h; protein A/G Sepharose; gel bands analysed by MS.

Amino acid sequences for entries named in this document (tags omitted). A change or cut given only in a name is not applied to a line headed by its entry. Chains listed by the source or under a name are the forms on record and can include a tag or linker.
thyroid hormone receptor interactor protein 12 (TRIP12), endogenous (human (endogenous in HCT116 and HEK293T)) (Q14669, form named): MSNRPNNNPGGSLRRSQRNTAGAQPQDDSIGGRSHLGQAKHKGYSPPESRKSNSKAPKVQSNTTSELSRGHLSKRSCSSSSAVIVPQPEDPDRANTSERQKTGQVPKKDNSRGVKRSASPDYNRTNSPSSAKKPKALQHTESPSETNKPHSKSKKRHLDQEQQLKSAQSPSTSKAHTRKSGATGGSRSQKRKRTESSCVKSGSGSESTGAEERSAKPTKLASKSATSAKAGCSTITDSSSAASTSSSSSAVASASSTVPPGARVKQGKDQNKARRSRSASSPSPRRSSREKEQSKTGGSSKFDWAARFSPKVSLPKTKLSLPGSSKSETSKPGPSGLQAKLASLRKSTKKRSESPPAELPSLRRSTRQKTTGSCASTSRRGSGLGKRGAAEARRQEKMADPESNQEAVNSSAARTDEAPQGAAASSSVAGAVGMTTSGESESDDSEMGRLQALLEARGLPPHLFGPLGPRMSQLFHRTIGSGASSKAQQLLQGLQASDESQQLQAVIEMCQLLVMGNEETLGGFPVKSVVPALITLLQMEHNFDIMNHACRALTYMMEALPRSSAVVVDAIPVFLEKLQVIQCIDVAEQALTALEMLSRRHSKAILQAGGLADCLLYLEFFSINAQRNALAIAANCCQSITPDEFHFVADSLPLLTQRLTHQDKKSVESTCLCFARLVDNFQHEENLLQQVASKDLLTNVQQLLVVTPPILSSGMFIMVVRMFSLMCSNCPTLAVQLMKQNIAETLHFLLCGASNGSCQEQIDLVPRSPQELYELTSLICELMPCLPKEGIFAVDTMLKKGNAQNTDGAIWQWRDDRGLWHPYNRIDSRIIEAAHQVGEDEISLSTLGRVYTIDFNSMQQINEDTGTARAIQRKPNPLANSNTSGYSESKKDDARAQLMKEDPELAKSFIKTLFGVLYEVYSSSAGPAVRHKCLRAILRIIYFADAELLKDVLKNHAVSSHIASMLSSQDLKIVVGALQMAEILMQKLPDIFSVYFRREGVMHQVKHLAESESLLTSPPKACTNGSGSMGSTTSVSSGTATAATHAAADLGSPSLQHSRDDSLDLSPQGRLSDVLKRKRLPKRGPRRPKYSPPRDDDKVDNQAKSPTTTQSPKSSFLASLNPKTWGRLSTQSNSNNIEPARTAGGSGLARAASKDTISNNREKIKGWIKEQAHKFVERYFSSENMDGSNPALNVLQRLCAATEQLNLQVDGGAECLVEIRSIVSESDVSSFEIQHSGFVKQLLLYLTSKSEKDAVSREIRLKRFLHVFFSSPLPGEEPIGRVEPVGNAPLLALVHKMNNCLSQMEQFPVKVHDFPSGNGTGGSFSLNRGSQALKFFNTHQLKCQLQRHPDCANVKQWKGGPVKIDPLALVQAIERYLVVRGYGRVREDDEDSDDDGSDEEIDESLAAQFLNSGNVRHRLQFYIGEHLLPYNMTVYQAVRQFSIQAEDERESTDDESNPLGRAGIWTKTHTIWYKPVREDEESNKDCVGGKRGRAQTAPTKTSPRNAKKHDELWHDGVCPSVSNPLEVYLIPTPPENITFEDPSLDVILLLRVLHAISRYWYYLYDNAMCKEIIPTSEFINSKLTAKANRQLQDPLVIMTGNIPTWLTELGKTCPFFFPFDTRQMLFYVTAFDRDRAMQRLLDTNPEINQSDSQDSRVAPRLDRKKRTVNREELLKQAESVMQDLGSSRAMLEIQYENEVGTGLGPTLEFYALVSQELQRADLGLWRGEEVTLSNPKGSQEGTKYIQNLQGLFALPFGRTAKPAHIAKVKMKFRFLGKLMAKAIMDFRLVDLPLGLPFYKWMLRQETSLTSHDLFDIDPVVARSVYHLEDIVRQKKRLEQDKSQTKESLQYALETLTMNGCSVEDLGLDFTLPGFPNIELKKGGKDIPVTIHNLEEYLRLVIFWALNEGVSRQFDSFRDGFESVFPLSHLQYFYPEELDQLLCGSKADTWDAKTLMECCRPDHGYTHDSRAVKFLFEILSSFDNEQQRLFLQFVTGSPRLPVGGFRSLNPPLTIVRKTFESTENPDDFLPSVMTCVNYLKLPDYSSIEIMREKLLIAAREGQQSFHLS
UniProt Q13485: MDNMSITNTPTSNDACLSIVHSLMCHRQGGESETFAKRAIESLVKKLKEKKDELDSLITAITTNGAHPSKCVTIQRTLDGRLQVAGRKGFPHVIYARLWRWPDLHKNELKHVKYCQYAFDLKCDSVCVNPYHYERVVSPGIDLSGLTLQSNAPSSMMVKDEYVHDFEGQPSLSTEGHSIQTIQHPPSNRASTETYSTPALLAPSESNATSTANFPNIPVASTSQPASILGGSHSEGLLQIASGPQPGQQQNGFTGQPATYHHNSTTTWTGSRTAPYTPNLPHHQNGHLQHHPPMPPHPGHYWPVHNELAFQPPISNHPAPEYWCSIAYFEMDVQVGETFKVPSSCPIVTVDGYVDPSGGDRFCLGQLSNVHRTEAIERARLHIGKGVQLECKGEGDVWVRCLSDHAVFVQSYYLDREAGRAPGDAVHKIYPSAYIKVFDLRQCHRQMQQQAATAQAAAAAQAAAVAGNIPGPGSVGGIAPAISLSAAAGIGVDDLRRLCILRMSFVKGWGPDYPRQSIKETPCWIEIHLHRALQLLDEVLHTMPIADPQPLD

No constants are given. Whether binding was seen depends on the method and setting. In cells and extracts the contact can be indirect. Here binding means that the protein was enriched with, or labelled near, the bait; the list need not be complete.

For the substance “SMAD4, endogenous (from UniProt Q13485 1-552)”, the binding result is on record as “binds”.
